# Results: PubChem BioAssay AID1508600 (Functional Genomics Laboratory (NCATS/FGL), 2020)
# About 3,700 (7%) of roughly 53,000 sequences were called active.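 The calls were made as follows: active = gene knockdowns whose robust z-score for IL-1 alpha signal is at least 2 or at most -2, so actives lie on both sides; inactive = the rest.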 The list shows a part of the results.
# Assay: Components of the Cytosolic LPS Sensing Pathway: Gene Identification via Genome-wide siRNA Screen;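 also: robust z of the log signal after scaling to non-targeting control siRNA wells of the plate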
# Conditions: RAW264.7 macrophages, IL-1a HTRF, actives lie on both sides, screened at 100 nM (by protocol), cells primed 5 h with Pam3CSK4 first
# Procedure, shortened: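 RAW264.7; siRNA 100 nM final, RNAiMAX, 48h 37 degrees C; Pam3CSK4 5 h; LipidA + TransIT-TKO 24 h; IL-1a HTRF; CellTiter-Glo viability; robust z vs negative-control median.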
row,Sequence,z-score
1,GGACAAGGUCUUUAAUGUUTT against Fbxo3,inactive: -0.263
2,GCCAGAACAGAAUCCAGGGTT against Sftpb,inactive: 0.0141
3,GGGUCUUUCCAUCUACCUCTT against Magel2,inactive: 1.18
4,GGUACAGACCUUUGAAAUATT against Apobec2,inactive: -0.125
5,GGCAAACCGACAGACUUCUTT against Riok1,inactive: -0.033
6,GGAUCAGGUACACAGCAAGTT against Eci1,inactive: -1.58
7,GGAUCCUAUAUGUUCUUUGTT against Cabp2,inactive: -0.00915
8,GCCACUACAUAAAAUAGUCTT against Ube2z,inactive: 0.0966
9,GGACGUAGCUAUGGAGGAUTT against 1810009A15Rik,inactive: -1.83
10,GGCUAGACUACAUCACAGCTT against Pfdn6,inactive: 0.818
11,GGAACACAAAUUGUGCUUATT against Zfp462,inactive: 0.199
12,GGAUGGACUCUGUUCCUGUTT against Susd2,inactive: 0.956
13,GGCUGACAAGAGAUUUAAATT against 4930430F08Rik,inactive: -0.703
14,GGCUGAGGCUCAUUACAAGTT against Zfp385c,inactive: -0.843
15,CCUUCUCCUCGUGCAAGUATT against Cort,active: 2.05
16,GGCAAAUUUGGAAACGUGUTT against Aurkb,inactive: -0.0577
17,GCACUUUGGUUUUACCGCCTT against Zfp385a,inactive: 0.518
18,GGGUUAAUCCCUAUCUCUUTT against Tfe3,inactive: 0.419
19,CCUUAUCUCUACCAUCGGUTT against Hyal2,inactive: 0.0745
20,GGAUGAAGGAACUAAAUAUTT against Cog3,active: -2.15
21,GGUAAUAAACGGUAAAUUGTT against B430306N03Rik,inactive: -0.763
22,GCUUGACUUGGUAUGUUUATT against Ces2e,inactive: 1.61

row,Sequence,z-score
1,GGUAUUCAGAAAUAUCAAGTT against Cpq,inactive: 0.315
2,CCAAUGUCAAGCAACUUCATT against Arnt2,inactive: -0.287
3,GGAAAAGCUACCUGUGUCATT against Tril,inactive: -1.88
4,GGAAGUAUGUCCAGUCAUATT against Ifit3,inactive: 0.379
5,CCUUUAGGUACCACGAGUGTT against Large2,inactive: -0.965
6,GGAAGUACUAUUACUGGACTT against Epha7,inactive: 0.149
7,GGAAUUGGCAACAUAAAAATT against Vldlr,inactive: -0.96
8,GGUAGUGGAGUUCAAGUCCTT against Dnah1,inactive: 0.0582
9,GGGCAAGUAUACCUUCAAUTT against Morn5,inactive: -0.016
10,GGUCCACAAGUUCAUCGUCTT against Rpa1,inactive: -1.13
11,GGUAUCUUCUCUUGGAAAATT against Tex12,inactive: -0.533
12,GGGUCCAUGAACUCAAGAUTT against Rrnad1,inactive: 0.473
13,CGGUCCACAUGAUCAUUCCTT against Dlg2,inactive: 1.79
14,GGAGCUGGAAAGUUACCGATT against Bdh2,inactive: 0.238
15,GGACAGCUACAAGAGGAGATT against Fbxl4,inactive: 1.44
16,GGAGGAACAGAGAGUUUGGTT against Kifc2,inactive: 0.429
17,GCUAAUGAUACAGAAGUUGTT against Snrpb2,inactive: 0.661
18,CCCACACAAUUCUCAUGGGTT against Olfr366,inactive: 0.661
19,CGACCCAUCCAUCUUUAUCTT against Dlg4,inactive: 0.683
20,GGUAAAAGAGUCGUGUUUCTT against Amigo2,inactive: -0.437
21,GGCUACAUUUCUGUUCUGATT against H2bc6,inactive: -0.305
22,GGGAAUCAACGCAAAGUUGTT against Pcdhga5,inactive: -0.00294

row,Sequence,z-score
1,CCUAUACCAGAUUUACAGGTT against Mtx1,inactive: 1.09
2,GGAAGUCCUUAGGUUUGGCTT against S1pr5,inactive: 1.61
3,GCAAAUUGGUCAUCGACUGTT against Alg1,inactive: 0.0456
4,GGCAACGGUUGAAUAAACATT against Mrgpra3,inactive: -1.36
5,GCGCAAUUAAAGAAGAACATT against Tcerg1,inactive: 1.22
6,GGAAUUUUAUCAUUGGGACTT against Wdr66,inactive: -0.828
7,GCUUGUGGAUUUUUAGUGATT against Mtfr2,inactive: 1.12
8,CCCUCGAAAAGACAGUGAGTT against Tbx1,inactive: 0.00419
9,GGUCAACUAAGUUAAAUGGTT against Pnma2,inactive: 0.666
10,GCUCUCACAGGAUAAGGCUTT against Cryga,inactive: -0.126
11,GGCCCAAGAGCAUUCUGGATT against Slc25a19,inactive: 0.552
12,GGCUUUGCUAGACACGGCUTT against Crtc3,inactive: -1.7
13,GCGAGCUGUAAAUGGAUCUTT against Gper1,inactive: -0.116
14,GGACGGAGGAUUCUGAAACTT against Prepl,active: 2.42
15,CCCUGAAGGCUUACUUUUUTT against Cfap299,inactive: -0.231
16,GGAAUGAUUUGGAAGAUAUTT against C1galt1c1,inactive: -1.14
17,GCUAAUCACUGAAUGCUUCTT against Atxn10,inactive: -0.768
18,GGCCAUAUUUGUUGUUGUUTT against Phgr1,inactive: -0.342
19,GGACAGUUCAGAACAAAUUTT against Ccbe1,inactive: -0.168
20,GCUAAGCUUGUCUAAAAUCTT against Ttk,inactive: 0.0991
21,CCCAAAGCGUGACUGUCAATT against Sema4b,inactive: -0.623
22,GGAACUAACAGCCCUACUATT against Sprn,inactive: -0.601

# 20 successive entries from above:
row,Sequence,z-score
1,GGUAUUCAGAAAUAUCAAGTT against Cpq,inactive: 0.315
2,CCAAUGUCAAGCAACUUCATT against Arnt2,inactive: -0.287
3,GGAAAAGCUACCUGUGUCATT against Tril,inactive: -1.88
4,GGAAGUAUGUCCAGUCAUATT against Ifit3,inactive: 0.379
5,CCUUUAGGUACCACGAGUGTT against Large2,inactive: -0.965
6,GGAAGUACUAUUACUGGACTT against Epha7,inactive: 0.149
7,GGAAUUGGCAACAUAAAAATT against Vldlr,inactive: -0.96
8,GGUAGUGGAGUUCAAGUCCTT against Dnah1,inactive: 0.0582
9,GGGCAAGUAUACCUUCAAUTT against Morn5,inactive: -0.016
10,GGUCCACAAGUUCAUCGUCTT against Rpa1,inactive: -1.13
11,GGUAUCUUCUCUUGGAAAATT against Tex12,inactive: -0.533
12,GGGUCCAUGAACUCAAGAUTT against Rrnad1,inactive: 0.473
13,CGGUCCACAUGAUCAUUCCTT against Dlg2,inactive: 1.79
14,GGAGCUGGAAAGUUACCGATT against Bdh2,inactive: 0.238
15,GGACAGCUACAAGAGGAGATT against Fbxl4,inactive: 1.44
16,GGAGGAACAGAGAGUUUGGTT against Kifc2,inactive: 0.429
17,GCUAAUGAUACAGAAGUUGTT against Snrpb2,inactive: 0.661
18,CCCACACAAUUCUCAUGGGTT against Olfr366,inactive: 0.661
19,CGACCCAUCCAUCUUUAUCTT against Dlg4,inactive: 0.683
20,GGUAAAAGAGUCGUGUUUCTT against Amigo2,inactive: -0.437

# Carrying on:

row,Sequence,z-score
1,GGUUGUUAUGGUCUCAUAUTT against Lrrc40,inactive: -0.62
2,GGUUCAGAAUCAAUACGAGTT against Krt2,inactive: -0.909
3,GGAGAAACUGGCAGACCUUTT against Washc3,inactive: -0.388
4,GCCUAACGGAGAGGUAUUUTT against Gal3st1,inactive: -0.505
5,GGCAAGGAUGAUGUCUUCGTT against Upk1a,inactive: -1.33
6,GUUCUUACACCCAUCUUGATT against Olfr1414,inactive: -0.814
7,GCAAUAACCCAAUUCCUGATT against Phex,inactive: 0.179
8,GCAUAGAUGAAGCAAUACUTT against Ugp2,inactive: -0.353
9,GGCAUUGCAUGUGCACGAUTT against Ror1,inactive: -0.867
10,GGCAGGAGCAAAACAUUUUTT against Olfr1111,inactive: 1.58
11,GGUCCUCAGCAGUCAUCAUTT against Sprr2h,inactive: -1.55
12,GGCAACAAAUCAAAGCAGCTT against Anxa7,inactive: 1.4
13,GGUUUUUCAAACAAGAGCATT against Slc16a10,inactive: -1.05
14,GGGACUUUAGAUGAAAAAATT against Efcab1,inactive: 0.318
15,GGGCUGUUCUAAUUCCUUCTT against Il17f,inactive: 1.73
16,GCUUUAUUCCUACCGGGAUTT against Dgat1,inactive: 0.557
17,GGAGAUAUUUUUCUUGUCCTT against Vcp,inactive: -1.31
18,GGAAUUUGUAAAUUUCCGATT against Nipsnap2,inactive: 0.0708
19,GGCUCAGUAAGGACUCUGATT against Tac2,inactive: 1.24
20,GGAGGAAAAAAAGUGAAGATT against Ovol2,inactive: 0.175
21,GGUGAAACGCAAAAUAUUCTT against Klkb1,inactive: -0.0472
22,GCCAACGCAGCAAAAGCUCTT against Rsrp1,inactive: 0.0495

row,Sequence,z-score
1,CGUAUCAGAUCGGGACUUUTT against Ifnk,inactive: 1.07
2,CCAUUCUACACUUUUCCACTT against Krtap1-5,inactive: -0.909
3,GGACUCAUUUGUGAACAGCTT against Agap3,inactive: 0.532
4,GGCCUUUCAGACUGUAUUGTT against Npr2,inactive: 0.584
5,GGCAAAAUCGUGGUUUCACTT against Cd53,inactive: -0.321
6,GCGCAUACAGGAAUUUUUATT against Helb,inactive: -0.56
7,UAUUGUCACCGUCUUAGGCTT against Olfr1028,active: -2.84
8,CCUCCCAUGGUUCUUUCGUTT against Atp5g2,inactive: 0.514
9,GCUGACCGUUACAUCACCATT against Mc2r,inactive: -0.876
10,CGCAAGCCAAUCUUCGAAUTT against Shfl,inactive: 1.06
11,GGCCAUCGUACGUGUUUGATT against Cdhr3,inactive: 0.966
12,GGCACCAAUUACAAGAAAATT against V1rg10,inactive: 0.257
13,GGCCAGAGGACUAUGUUAUTT against C1s2,inactive: 1.24
14,CCCUAUACCUGAAGCAUUATT against Gabrr2,inactive: 0.0149
15,GGCAUCUUCGAAAAAUGAUTT against Reck,inactive: -0.552
16,GUUACAGUAUUCUAUGGGATT against Olfr1080,inactive: 0.508
17,GGAAGAACAGUUCAGCGGATT against Rtkn2,inactive: -0.243
18,GGUGGAAGAUUAGUGACUUTT against Trim38,inactive: 1.63
19,GGAUAAUGGAGCAAAUUGCTT against Slc22a1,inactive: -0.522
